Here are results for 8 substances from patent US4684620A (Gibson-Stephens Neuropharmaceuticals, Inc., priority 1984, dated 1987).

HELM strings list residues between dots; [ac] is acetyl, [am] amide, other brackets name non-standard units.

Data set [1] is described as follows: general procedure: Boc solid-phase peptide synthesis; N-alpha-t-BOC-O-benzyl-L-Threonine chloromethylated resin; p-methylbenzhydrylamine resin (Examples VI, VII); DCC (preformed symmetrical anhydride). The note with it: whole synthesis.
Data set [2] in a line: general procedure: Boc solid-phase peptide synthesis; p-methylbenzhydrylamine resin; DCC (preformed symmetrical anhydride). Particulars: whole synthesis; for isolated yield: scale of the general procedure 0.52 mmol.
[3] abbreviates: scale of the general procedure 0.52 mmol.

In data set [1] (scale 0.70 mmol), “PEPTIDE1{[dF].[C3].F.[dW].K.T.[C3].T}$PEPTIDE1,PEPTIDE1,2:R3-7:R3$$$V2.0” returned an isolated mass of 157 mg and an isolated yield of 21%.

Regarding “PEPTIDE1{[dF].[C3].F.[dW].K.T.[Pen].T.[am]}$PEPTIDE1,PEPTIDE1,2:R3-7:R3$$$V2.0”, in data set [2], the isolated mass is listed as 112 mg and the isolated yield was 15%.

With “PEPTIDE1{[dF].[C3].F.[dW].K.T.[Pen].T}$PEPTIDE1,PEPTIDE1,2:R3-7:R3$$$V2.0”, the isolated mass in data set [1] is recorded as 76 mg. In data set [1] (setting [3]), this substance gave an isolated yield of 14%.

In data set [2], “PEPTIDE1{[dF].[C3].Y.[dW].K.T.[Pen].T.[am]}$PEPTIDE1,PEPTIDE1,2:R3-7:R3$$$V2.0” displayed an isolated mass of 87 mg and an isolated yield of 12%.

Take “PEPTIDE1{[dF].[C3].Y.[dW].K.T.[Pen].T}$PEPTIDE1,PEPTIDE1,2:R3-7:R3$$$V2.0”: in data set [1] (214 nm, scale of the general procedure 0.52 mmol), the “final HPLC purity” value was “(80%) pure”. In addition, in data set [1] (scale 0.52 mmol), the isolated mass stood at 91 mg and the isolated yield came out at 16% yield.

In data set [1] (scale 0.70 mmol), “PEPTIDE1{[dF].[Pen].F.[dW].K.T.[C3].T}$PEPTIDE1,PEPTIDE1,2:R3-7:R3$$$V2.0” displayed an isolated mass of 96 mg and an isolated yield of 17%.

In the case of “PEPTIDE1{[dF].[Pen].F.[dW].K.T.[Pen].T}$PEPTIDE1,PEPTIDE1,2:R3-7:R3$$$V2.0”, in data set [1] (scale 0.62 mmol), the isolated mass is 52 mg and the isolated yield is recorded as 7.7%.

In the case of “PEPTIDE1{[dPhg].[Pen].F.[dW].K.T.[C3].T}$PEPTIDE1,PEPTIDE1,2:R3-7:R3$$$V2.0”, the isolated mass entry in data set [1] is “approximately 70 mg”. Besides, the isolated yield result in data set [1] (setting [3]) was “ca 13%”.
